PubChem BioAssay AID1508597 | Cure First, 2020

- Test: 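Knock-downs altering ovarian cancer cell survival with or without PARP inhibitor rucaparib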 (primary screen)
- Cells: human ovarian carcinoma lines grown from tumours: OCI-P5x (papillary serous) and OCI-C5x (clear cell)
- Knock-down reagent: siRNA pool against human genes, 1.25 pmol siRNA per well
- Timing: 72 h or 96 h, depending on the cell culture
- Conditions: rucaparib 20 µM (about IC30) or vehicle, present until read-out
- Rucaparib or vehicle: Vehicle
- Cell line: OCI-C5x (clear cell)
- Measured: 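ATP luminescence measured at 72 or 96 h according to the culture, then normalised and expressed as percent viability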
- Scale: viability, normalised: higher = more viable cells remaining
- Active means: 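a well counts as a hit if its normalised viability is under 80 percent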
- Calls: active = viability under 80%; inactive = viability 80% or more
Shown is a random part of the about 2,100 reagents, under one of the conditions tested. 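Calls flag viability under 80% in either arm, not effects specific to rucaparib; the reference for percent is not stated.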 A reagent listed more than once was tested more than once; the source does not tell the runs apart. Not stated in the record: the 100% reference.

gene,PubChem SID,technical replicate,"viability, normalised (%)",Outcome
PDE3A,SID405526687,1,57.1,active
PDE3A,SID405526687,2,64.6,active
PDE3A,SID405526687,3,57.7,active
RAD50,SID405528346,1,47.7,active
RAD50,SID405528346,2,39.6,active
RAD50,SID405528346,3,48.3,active
CDYL2,SID405528092,1,26.6,active
CDYL2,SID405528092,2,43.5,active
CDYL2,SID405528092,3,52.3,active
TAF10,SID405526522,1,44.6,active
TAF10,SID405526522,2,50,active
TAF10,SID405526522,3,41.2,active
DCP2,SID405528166,1,30.8,active
DCP2,SID405528166,2,47.3,active
DCP2,SID405528166,3,51.4,active
DDX55,SID405528200,1,34.4,active
DDX55,SID405528200,2,52.5,active
DDX55,SID405528200,3,32.1,active
RERE,SID405527244,1,48.2,active
RERE,SID405527244,2,40.3,active
RERE,SID405527244,3,52.7,active
MPP2,SID405527488,1,82.7,inactive
MPP2,SID405527488,2,79.3,active
MPP2,SID405527488,3,49.7,active
MTOR,SID405527501,1,59.7,active
MTOR,SID405527501,2,48.8,active
MTOR,SID405527501,3,48.8,active
CLK3,SID405527599,1,84.7,inactive
CLK3,SID405527599,2,91.3,inactive
CLK3,SID405527599,3,87.8,inactive
SMC2,SID405527340,1,33.5,active
SMC2,SID405527340,2,43.6,active
SMC2,SID405527340,3,45.1,active
POLL,SID405528312,1,57.2,active
POLL,SID405528312,2,57.4,active
POLL,SID405528312,3,47.1,active
NAP1L1,SID405527056,1,39.2,active
NAP1L1,SID405527056,2,53.8,active
NAP1L1,SID405527056,3,49,active
CDH2,SID405528085,1,58.4,active
CDH2,SID405528085,2,57.4,active
CDH2,SID405528085,3,53.3,active
SNAPC4,SID405527352,1,36.2,active
SNAPC4,SID405527352,2,51.6,active
SNAPC4,SID405527352,3,44.4,active
AKT3,SID405527451,1,94.4,inactive
AKT3,SID405527451,2,86.1,inactive
AKT3,SID405527451,3,79,active
ELOA3P,SID405527464,1,58.7,active
ELOA3P,SID405527464,2,45.8,active
ELOA3P,SID405527464,3,42.2,active
HMGB2,SID405526878,1,50.8,active
HMGB2,SID405526878,1,39.8,active
HMGB2,SID405526878,2,53.1,active
HMGB2,SID405526878,2,65.1,active
HMGB2,SID405526878,3,63.8,active
HMGB2,SID405526878,3,50.3,active
TTF1,SID405526595,1,33.8,active
TTF1,SID405526595,2,28.8,active
TTF1,SID405526595,3,33.8,active
DDX41,SID405528188,1,20.4,active
DDX41,SID405528188,2,27.9,active
DDX41,SID405528188,3,33.7,active
PRMT9,SID405527200,1,36.3,active
PRMT9,SID405527200,2,31.5,active
PRMT9,SID405527200,3,39.7,active
PLCH1,SID405526715,1,67.1,active
PLCH1,SID405526715,2,74.8,active
PLCH1,SID405526715,3,73.8,active
RBL1,SID405527235,1,50.7,active
RBL1,SID405527235,2,35,active
RBL1,SID405527235,3,45.2,active
NEK7,SID405527898,1,38.5,active
NEK7,SID405527898,2,31.9,active
NEK7,SID405527898,3,46.7,active
